From paper PMC12432127 (Scientific Reports, 2025)

Assay: general procedure: Fmoc solid-phase peptide synthesis; Wang resin (Ile-Wang resin); HATU/DIPEA (spacer and chelator coupling)
Settings: for final HPLC purity: analytical HPLC
[1] = whole synthesis, scale of the general procedure 25 µmol

Substance	isolated mass (whole synthesis) [mg]	final HPLC purity [1] [%]	isolated yield (whole synthesis, overall, scale of the general procedure 25 µmol)	isolated yield [1] [%]	step yield (late stage modification step) [%]	final HPLC purity (late stage modification step) [%]
PEPTIDE1{[For].M.V.P.I.K.I}|PEPTIDE2{[DOTA].[Ahx]}$PEPTIDE1,PEPTIDE2,6:R3-2:R2$$$V2.0	9.45	99	28 ± 6% (n = 6)	31		
^natGa-f-MVPIK(Ahx-DOTA)I [natGa-f-MVPIK(Ahx-DOTA)I]					73	66
^natLu-f-MVPIK(Ahx-DOTA)I [natLu-f-MVPIK(Ahx-DOTA)I]					80	99

Strings that start with PEPTIDE1 are HELM notation: dots part the residues, brackets hold end groups and non-standard residues.
